Results: article PMC11549141
Results are given in words; binding and its absence hold for the method and conditions named. For some of these results: In cells and extracts the contact can be indirect. For some of these results: Where a sequence is shown, tags or fusion partners need not be part of it.

Columns and labels:
[1] = biological target: OSBZ8 fused with the GAL4 DNA binding domain (rice); experiment: two-hybrid; SLR1 forms in pGADT7 (GAL4 AD), transcription factors in pGBKT7 (GAL4 BD); S. cerevisiae Y2HGold; screening on SD/-Leu/-Trp/-Ade/-His; three individual colonies
[2] = biological target: IDEF1 fused with the GAL4 DNA binding domain (rice); experiment: as above
[3] = biological target: IDEF1 in YFC43 (BiFC) (rice); experiment: split reporter; BiFC: SLR1 forms in YFN43, transcription factors in YFC43; co-infiltrated Nicotiana benthamiana leaves with P19; fluorescence microscopy 48-72 h after infiltration
[4] = biological target: OSBZ8 in YFC43 (BiFC) (rice); experiment: as above

binding [1]	binding [2]	binding [3]	binding [4]	Binder
no binding	no binding	–	–	SLENDER RICE1 (SLR1) fused with the GAL4 activation domain (protein, UniProt Q7G7J6 1-625) MKREYQEAGGSSGGGSSADMGSCKDKVMAGAAGEEEDVDELLAALGYKVRSSDMADVAQKLEQLEMAMGMGGVSAPGAADDGFVSHLATDTVHYNPSDLSSWVESMLSELNAPLPPIPPAPPAARHASTSSTVTGGGGSGFFELPAAADSSSSTYALRPISLPVVATADPSAADSARDTKRMRTGGGSTSSSSSSSSSLGGGASRGSVVEAAPPATQGAAAANAPAVPVVVVDTQEAGIRLVHALLACAEAVQQENFAAAEALVKQIPTLAASQGGAMRKVAAYFGEALARRVYRFRPADSTLLDAAFADLLHAHFYESCPYLKFAHFTANQAILEAFAGCHRVHVVDFGIKQGMQWPALLQALALRPGGPPSFRLTGVGPPQPDETDALQQVGWKLAQFAHTIRVDFQYRGLVAATLADLEPFMLQPEGEADANEEPEVIAVNSVFELHRLLAQPGALEKVLGTVHAVRPRIVTVVEQEANHNSGSFLDRFTESLHYYSTMFDSLEGGSSGQAELSPPAAGGGGGTDQVMSEVYLGRQICNVVACEGAERTERHETLGQWRNRLGRAGFEPVHLGSNAYKQASTLLALFAGGDGYRVEEKEGCLTLGWHTRPLIATSAWRVAAA
–	–	no binding	no binding	SLENDER RICE1 (SLR1) in YFN43 (BiFC) (protein, UniProt Q7G7J6 1-625) MKREYQEAGGSSGGGSSADMGSCKDKVMAGAAGEEEDVDELLAALGYKVRSSDMADVAQKLEQLEMAMGMGGVSAPGAADDGFVSHLATDTVHYNPSDLSSWVESMLSELNAPLPPIPPAPPAARHASTSSTVTGGGGSGFFELPAAADSSSSTYALRPISLPVVATADPSAADSARDTKRMRTGGGSTSSSSSSSSSLGGGASRGSVVEAAPPATQGAAAANAPAVPVVVVDTQEAGIRLVHALLACAEAVQQENFAAAEALVKQIPTLAASQGGAMRKVAAYFGEALARRVYRFRPADSTLLDAAFADLLHAHFYESCPYLKFAHFTANQAILEAFAGCHRVHVVDFGIKQGMQWPALLQALALRPGGPPSFRLTGVGPPQPDETDALQQVGWKLAQFAHTIRVDFQYRGLVAATLADLEPFMLQPEGEADANEEPEVIAVNSVFELHRLLAQPGALEKVLGTVHAVRPRIVTVVEQEANHNSGSFLDRFTESLHYYSTMFDSLEGGSSGQAELSPPAAGGGGGTDQVMSEVYLGRQICNVVACEGAERTERHETLGQWRNRLGRAGFEPVHLGSNAYKQASTLLALFAGGDGYRVEEKEGCLTLGWHTRPLIATSAWRVAAA
